In experiment [1] the target is p85 (endogenous, in MDA-MB-486 cells) (UniProt P27986). Kind of experiment: Gab2 immunoprecipitation followed by immunoblotting with p85 antibodies.
For experiment [2], the target named is T1, Shc (endogenous, in BaF3 cells) (UniProt P98083).
T1 sequence (looked up): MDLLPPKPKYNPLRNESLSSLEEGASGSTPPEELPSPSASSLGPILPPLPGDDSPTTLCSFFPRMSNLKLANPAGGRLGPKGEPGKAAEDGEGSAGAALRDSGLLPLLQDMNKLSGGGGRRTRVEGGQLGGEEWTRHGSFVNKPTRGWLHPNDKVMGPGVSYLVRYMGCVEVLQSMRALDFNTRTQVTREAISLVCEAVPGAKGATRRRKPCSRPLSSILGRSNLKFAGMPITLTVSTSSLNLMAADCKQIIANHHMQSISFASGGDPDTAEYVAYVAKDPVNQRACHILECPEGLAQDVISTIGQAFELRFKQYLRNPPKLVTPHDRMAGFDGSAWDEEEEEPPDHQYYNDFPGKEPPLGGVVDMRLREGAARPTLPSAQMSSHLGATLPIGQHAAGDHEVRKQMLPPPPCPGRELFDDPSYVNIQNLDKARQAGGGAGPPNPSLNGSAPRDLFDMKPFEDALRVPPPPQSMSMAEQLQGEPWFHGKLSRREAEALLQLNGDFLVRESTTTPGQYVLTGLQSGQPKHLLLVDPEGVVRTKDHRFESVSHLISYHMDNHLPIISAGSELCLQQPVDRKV
Kind of experiment: co-immunoprecipitation, transfected BaF3 cells.

Amino acid sequences for entries named in this document (tags omitted). A change or cut given only in a name is not applied to a line headed by its entry. Residues count along the entry.
UniProt P27986, residues 2-724: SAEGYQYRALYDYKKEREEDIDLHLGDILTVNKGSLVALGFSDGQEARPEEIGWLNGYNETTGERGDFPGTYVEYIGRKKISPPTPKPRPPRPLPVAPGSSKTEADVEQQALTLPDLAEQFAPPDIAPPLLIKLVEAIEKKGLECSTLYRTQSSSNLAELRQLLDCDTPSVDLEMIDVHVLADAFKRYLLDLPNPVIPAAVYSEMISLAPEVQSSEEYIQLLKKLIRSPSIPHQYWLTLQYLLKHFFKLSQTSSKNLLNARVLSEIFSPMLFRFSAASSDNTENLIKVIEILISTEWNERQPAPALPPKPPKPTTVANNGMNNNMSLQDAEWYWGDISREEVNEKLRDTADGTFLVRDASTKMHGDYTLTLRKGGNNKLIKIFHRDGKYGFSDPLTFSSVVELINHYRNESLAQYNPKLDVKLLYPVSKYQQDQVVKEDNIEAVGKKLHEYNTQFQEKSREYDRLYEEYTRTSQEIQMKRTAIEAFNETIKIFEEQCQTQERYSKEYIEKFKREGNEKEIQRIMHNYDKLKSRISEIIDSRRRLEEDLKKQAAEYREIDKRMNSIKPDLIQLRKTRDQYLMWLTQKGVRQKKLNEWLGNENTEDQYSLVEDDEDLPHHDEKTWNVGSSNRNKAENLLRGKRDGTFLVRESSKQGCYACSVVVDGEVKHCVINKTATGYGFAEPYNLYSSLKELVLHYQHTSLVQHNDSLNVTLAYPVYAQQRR
UniProt P26450, residues 2-724: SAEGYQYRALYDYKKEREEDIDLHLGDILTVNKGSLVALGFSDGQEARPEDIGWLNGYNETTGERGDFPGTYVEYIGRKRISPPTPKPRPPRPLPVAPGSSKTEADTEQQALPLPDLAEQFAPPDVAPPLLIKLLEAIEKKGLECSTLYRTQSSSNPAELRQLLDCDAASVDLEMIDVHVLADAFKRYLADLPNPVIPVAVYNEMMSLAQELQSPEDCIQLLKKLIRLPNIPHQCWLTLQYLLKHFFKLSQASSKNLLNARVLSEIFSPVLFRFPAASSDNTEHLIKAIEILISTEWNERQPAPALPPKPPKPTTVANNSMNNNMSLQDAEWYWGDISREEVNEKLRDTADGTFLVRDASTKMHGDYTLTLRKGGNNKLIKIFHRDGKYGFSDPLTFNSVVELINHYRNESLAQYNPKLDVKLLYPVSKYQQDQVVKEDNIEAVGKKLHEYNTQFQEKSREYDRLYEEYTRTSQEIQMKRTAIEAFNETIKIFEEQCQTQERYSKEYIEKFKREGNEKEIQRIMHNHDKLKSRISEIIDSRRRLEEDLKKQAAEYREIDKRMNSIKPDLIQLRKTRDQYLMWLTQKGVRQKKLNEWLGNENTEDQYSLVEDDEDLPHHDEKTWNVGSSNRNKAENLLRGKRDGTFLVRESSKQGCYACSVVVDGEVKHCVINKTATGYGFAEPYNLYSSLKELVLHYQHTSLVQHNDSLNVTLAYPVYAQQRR
UniProt Q60631: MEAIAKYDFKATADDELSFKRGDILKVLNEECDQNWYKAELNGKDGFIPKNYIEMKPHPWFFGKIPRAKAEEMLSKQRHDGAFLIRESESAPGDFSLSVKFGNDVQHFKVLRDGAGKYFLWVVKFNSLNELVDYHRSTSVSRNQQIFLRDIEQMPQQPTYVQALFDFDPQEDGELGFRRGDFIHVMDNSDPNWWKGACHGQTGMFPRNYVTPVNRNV
UniProt Q9UQC2: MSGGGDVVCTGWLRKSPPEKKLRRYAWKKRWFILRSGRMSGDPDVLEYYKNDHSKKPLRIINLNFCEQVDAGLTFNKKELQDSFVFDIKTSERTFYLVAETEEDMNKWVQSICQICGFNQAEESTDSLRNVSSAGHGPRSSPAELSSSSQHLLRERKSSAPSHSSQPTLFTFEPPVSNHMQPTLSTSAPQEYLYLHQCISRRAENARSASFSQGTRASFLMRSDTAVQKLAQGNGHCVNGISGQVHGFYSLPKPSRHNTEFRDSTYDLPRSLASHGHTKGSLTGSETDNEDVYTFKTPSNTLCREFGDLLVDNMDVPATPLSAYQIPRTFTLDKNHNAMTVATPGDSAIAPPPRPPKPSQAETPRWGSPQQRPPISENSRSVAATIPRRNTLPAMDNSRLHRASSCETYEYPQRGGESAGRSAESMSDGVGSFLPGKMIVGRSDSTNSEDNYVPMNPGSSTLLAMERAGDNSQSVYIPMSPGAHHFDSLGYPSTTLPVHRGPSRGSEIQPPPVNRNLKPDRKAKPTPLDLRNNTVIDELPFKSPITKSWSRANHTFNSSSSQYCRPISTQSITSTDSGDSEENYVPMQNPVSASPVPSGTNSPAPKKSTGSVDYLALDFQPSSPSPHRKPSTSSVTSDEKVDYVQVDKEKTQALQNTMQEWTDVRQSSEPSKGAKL
UniProt Q9Z1S8: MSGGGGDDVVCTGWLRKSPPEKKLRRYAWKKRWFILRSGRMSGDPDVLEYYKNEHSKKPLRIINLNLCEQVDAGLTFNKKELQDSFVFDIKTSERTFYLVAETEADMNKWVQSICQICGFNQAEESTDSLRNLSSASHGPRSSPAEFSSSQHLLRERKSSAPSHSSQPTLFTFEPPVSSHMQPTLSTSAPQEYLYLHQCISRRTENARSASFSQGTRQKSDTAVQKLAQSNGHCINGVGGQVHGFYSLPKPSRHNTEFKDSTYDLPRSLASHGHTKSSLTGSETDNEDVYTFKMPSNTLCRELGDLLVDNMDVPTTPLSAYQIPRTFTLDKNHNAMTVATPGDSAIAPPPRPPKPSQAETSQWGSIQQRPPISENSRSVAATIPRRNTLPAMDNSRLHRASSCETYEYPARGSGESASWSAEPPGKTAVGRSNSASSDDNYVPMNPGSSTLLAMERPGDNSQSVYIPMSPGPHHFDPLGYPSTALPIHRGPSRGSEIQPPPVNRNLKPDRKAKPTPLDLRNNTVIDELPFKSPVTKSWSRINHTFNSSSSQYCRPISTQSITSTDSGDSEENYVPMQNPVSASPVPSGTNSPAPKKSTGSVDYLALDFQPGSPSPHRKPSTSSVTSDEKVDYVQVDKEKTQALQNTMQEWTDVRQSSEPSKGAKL

The target of experiment [3] is p85 subunit of PI-3K (endogenous, in BaF3 and P210BCR-ABL BaF3 cells) (UniProt P26450). The experiment in a line: co-immunoprecipitation, transfected BaF3 cells.
Experiment [4] concerns the target Grb2 (endogenous, in BaF3 cells) (UniProt Q60631). Kind of experiment: co-immunoprecipitation, Gab2HA-transfected BaF3 cells, with and without IL-3.
Experiment [5] concerns the target T1, Shc (endogenous, in BaF3 cells). The experiment in a line: co-immunoprecipitation, Gab2HA-transfected IL-3-stimulated BaF3 cells.
Experiment [6] concerns the target p85 subunit of PI-3K (endogenous, in BaF3 and P210BCR-ABL BaF3 cells) (UniProt P26450). Described as above.

These are yes or no findings as the source states them, for the method shown. For part of these data: In cells and extracts the contact can be indirect. Some results given as binding are weak or reduced against the parent protein; the word gives no strength.

With “Gab2 (endogenous, in Kit225, Jurkat and MDA-MB-486 cells) (from UniProt Q9UQC2 1-676)”, in experiment [1], the binding result is “binds”.
On to “Gab2ΔY2HA (Gab2 C-terminal deletion mutant with C-terminal HA tag) (from UniProt Q9Z1S8 1-602)”, for which the binding result in experiment [2] and in experiment [3] was “binds” in each case.
With “Gab2HA (HA-tagged wild type Gab2) (from UniProt Q9Z1S8 1-665)”, the binding entry in experiment [4], in experiment [5] and in experiment [6] was “binds” throughout.

The values are drawn from patent publication EP1666595A1.
